Paper PMC11677236
These are yes or no findings as the source states them, for the method shown. Binding seen in cells or lysates may run through a third protein. Here binding means that the protein was enriched with, or labelled near, the bait; the list need not be complete.

Protein sequences, listed by entry. Tags and fused reporters are not part of them.
UniProt P14618: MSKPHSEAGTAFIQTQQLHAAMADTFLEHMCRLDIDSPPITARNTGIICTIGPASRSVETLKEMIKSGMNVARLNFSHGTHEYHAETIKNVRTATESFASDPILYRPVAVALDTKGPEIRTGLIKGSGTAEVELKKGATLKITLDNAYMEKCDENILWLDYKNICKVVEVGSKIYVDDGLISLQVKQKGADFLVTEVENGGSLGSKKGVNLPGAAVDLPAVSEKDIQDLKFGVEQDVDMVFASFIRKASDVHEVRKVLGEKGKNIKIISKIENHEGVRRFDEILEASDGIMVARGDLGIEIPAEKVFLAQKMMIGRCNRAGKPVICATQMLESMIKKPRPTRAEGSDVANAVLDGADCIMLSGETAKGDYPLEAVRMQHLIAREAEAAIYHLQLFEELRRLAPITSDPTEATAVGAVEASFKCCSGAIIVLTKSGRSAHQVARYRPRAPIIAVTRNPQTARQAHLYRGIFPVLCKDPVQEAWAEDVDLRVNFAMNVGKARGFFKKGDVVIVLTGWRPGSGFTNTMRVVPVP

Biological target: T1, TIPE (TNFAIP8, tumor necrosis factor alpha-induced protein 8), endogenous (human (endogenous in A375 and G361)) (UniProt O95379)
T1 sequence: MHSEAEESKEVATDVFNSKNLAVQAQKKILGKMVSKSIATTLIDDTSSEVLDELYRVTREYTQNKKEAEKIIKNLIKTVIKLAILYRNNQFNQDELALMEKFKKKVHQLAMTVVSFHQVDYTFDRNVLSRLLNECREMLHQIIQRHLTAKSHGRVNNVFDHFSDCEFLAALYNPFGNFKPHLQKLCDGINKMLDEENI
Assay: affinity purification with mass spectrometry; Co-IP/MS in A375 cells with the TIPE antibody as bait; beads washed, eluted, gel stained with Coomassie, bands digested with chymotrypsin, LC-MS/MS

## pyruvate kinase M2 (PKM2), endogenous (from UniProt P14618 1-531) (enzyme)
  binding: binds
